The target in experiment [1] is His tagged full-length PTP1B protein (Homo sapiens, UniProt P18031). The experiment is described as follows: Mobility Shift Assay (MSA) used to determine potency of PTP1B inhibitors. Type of experiment: biochemical. Particulars: read-out: PTP1B MSA IC50; Table 2.
For experiment [2], the target named is His tagged PTPN2 (TC45) protein (Homo sapiens, UniProt P17706). The experiment is described as follows: Mobility Shift Assay used to determine potency of PTPN2 inhibitors. Particulars: read-out: PTPN2 MSA IC50; Table 2.

The chains behind the UniProt entries cited, without tags or fusion partners. A line that says so, or that is headed by a name, gives the form on record, which may keep a tag or linker. Residues count along the entry.
UniProt P18031, 1-321 with tags or gaps: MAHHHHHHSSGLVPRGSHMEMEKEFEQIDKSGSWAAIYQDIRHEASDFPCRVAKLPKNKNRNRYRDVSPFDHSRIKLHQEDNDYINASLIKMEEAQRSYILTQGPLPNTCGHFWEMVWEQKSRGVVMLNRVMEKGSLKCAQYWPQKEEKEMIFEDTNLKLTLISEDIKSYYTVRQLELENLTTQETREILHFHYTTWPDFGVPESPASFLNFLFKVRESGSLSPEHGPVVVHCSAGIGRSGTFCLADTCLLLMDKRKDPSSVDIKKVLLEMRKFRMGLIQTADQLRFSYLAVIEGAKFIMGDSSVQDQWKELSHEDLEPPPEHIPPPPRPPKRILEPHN
UniProt P17706, 1-387 with tags or gaps isoform 2: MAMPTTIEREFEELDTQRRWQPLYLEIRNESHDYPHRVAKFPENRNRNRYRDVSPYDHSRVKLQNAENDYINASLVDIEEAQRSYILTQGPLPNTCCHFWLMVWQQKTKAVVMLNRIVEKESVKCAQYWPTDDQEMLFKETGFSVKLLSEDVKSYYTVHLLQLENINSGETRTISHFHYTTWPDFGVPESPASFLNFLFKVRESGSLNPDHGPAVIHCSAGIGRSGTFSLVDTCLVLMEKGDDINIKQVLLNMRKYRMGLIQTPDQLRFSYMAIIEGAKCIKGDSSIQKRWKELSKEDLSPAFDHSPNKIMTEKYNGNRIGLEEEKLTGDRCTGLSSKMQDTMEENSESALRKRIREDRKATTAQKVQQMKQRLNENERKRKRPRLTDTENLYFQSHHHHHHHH

The match of structure and compound is tentative. A value given as a limit tells only on which side of the number the result lay.

As usually defined, the IC50 is the point on the concentration scale where inhibition reaches its midpoint. Turning to `CC1(CCOc2ccc3cc(O)c(N4CC(=O)NS4(=O)=O)c(F)c3c2)COC(C)(C)O1` (centres unmarked), the IC50 in experiment [1] is 1 to 10 nM; in experiment [2] it was below 1 nM.

The values above are taken from patent US20230019236A1, “PROTEIN TYROSINE PHOSPHATASE INHIBITORS AND METHODS OF USE THEREOF” (Calico Life Sciences LLC, priority 2019, published 2023).
